The other results are listed elsewhere or left out.
Experiments:
Test in all cases: log2 fold change, soluble protein after heating vs DMSO (PISA); higher = thermal stabilisation; K562 lysate, 10 uM; active = over 0.2 and 3.5 SD of the protein, either way, in both replicates (recomputed)
[1] = compound: CN1CC[C@H](c2c(O)cc(O)c3c(=O)cc(-c4ccccc4Cl)oc23)[C@H](O)C1 [alvocidib]
How it was run: (§1)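 Following dounce homogenisation of K562 pellets in PBS pH 7.4 with 1 mM MgCl2, crude extract at 1 mg/mL protein was incubated for 30 min with 10 μM compound. Aliquots were then heated for 3 min over 48°C-58°C and pooled, NP-40 was added to 0.5% at 4°C, and soluble protein was recovered as the supernatant at 21,000xg for 90 min. Channel-sum-equalised TMTpro 16plex LC-MS/MS quantified this protein. Each value, from duplicates, is a log-two fold change in thermal stability relative to solvent controls.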

By UniProt entry, the sequences of proteins in these tests, tags left out. Where a name states a change or a piece, a line headed by the entry shows the natural chain unless it says otherwise.
UniProt Q8IXU6: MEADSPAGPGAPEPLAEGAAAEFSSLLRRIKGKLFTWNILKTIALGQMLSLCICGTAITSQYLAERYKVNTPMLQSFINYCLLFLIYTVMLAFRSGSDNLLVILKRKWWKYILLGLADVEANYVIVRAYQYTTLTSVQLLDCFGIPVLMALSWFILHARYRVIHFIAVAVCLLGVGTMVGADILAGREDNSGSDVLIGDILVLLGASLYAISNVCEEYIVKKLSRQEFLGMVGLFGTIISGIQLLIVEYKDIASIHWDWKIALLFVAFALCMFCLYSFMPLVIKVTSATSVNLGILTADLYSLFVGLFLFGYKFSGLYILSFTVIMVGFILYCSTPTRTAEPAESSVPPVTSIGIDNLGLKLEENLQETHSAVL
UniProt O15431: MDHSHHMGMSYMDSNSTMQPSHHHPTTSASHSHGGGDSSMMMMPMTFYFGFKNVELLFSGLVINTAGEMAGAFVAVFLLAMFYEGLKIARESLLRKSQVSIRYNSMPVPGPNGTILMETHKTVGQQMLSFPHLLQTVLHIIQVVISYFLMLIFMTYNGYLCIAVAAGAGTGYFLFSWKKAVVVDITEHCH
UniProt Q9H1N7: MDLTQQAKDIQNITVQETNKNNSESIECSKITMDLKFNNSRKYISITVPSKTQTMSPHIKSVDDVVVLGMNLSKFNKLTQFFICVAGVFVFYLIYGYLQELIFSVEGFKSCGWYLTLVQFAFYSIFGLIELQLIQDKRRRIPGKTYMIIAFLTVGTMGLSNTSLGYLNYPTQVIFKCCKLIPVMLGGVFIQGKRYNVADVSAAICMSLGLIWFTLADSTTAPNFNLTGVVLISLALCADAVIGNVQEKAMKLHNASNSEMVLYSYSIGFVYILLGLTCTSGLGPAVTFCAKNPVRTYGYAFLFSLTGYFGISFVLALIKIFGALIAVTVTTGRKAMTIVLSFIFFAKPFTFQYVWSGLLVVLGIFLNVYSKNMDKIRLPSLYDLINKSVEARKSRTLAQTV
UniProt Q6KCM7: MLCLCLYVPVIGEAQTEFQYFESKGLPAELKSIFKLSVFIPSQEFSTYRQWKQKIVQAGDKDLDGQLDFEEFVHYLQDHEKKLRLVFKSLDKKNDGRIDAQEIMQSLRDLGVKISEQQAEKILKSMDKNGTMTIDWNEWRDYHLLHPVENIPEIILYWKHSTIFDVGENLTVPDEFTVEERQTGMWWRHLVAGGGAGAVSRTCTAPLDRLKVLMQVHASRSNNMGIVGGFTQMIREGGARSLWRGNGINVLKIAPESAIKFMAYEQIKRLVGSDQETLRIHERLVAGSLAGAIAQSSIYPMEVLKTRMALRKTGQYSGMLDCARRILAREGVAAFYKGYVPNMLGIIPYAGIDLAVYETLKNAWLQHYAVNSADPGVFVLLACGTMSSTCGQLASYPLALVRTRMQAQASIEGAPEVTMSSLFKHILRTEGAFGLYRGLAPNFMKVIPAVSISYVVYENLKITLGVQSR
UniProt P50443: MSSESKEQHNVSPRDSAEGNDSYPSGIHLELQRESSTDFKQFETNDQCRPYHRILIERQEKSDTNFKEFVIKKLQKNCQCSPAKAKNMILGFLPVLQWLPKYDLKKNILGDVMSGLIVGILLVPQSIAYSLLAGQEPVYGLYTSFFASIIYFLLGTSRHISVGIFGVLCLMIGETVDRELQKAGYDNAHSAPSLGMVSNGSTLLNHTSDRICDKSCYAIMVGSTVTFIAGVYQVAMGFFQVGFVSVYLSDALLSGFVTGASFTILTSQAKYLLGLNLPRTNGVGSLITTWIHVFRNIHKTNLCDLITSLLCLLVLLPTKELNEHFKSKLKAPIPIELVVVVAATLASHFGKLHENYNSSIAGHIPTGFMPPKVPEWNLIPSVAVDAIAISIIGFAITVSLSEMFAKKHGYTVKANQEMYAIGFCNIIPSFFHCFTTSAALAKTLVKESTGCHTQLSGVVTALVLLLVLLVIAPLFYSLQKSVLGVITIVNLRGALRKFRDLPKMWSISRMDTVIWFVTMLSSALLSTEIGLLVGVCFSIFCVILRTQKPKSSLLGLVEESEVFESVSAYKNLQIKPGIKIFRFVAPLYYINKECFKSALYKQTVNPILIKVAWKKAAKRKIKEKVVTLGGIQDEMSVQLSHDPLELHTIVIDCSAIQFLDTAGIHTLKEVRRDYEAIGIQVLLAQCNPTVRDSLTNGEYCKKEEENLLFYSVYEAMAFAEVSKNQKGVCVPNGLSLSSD
UniProt Q9UPY5: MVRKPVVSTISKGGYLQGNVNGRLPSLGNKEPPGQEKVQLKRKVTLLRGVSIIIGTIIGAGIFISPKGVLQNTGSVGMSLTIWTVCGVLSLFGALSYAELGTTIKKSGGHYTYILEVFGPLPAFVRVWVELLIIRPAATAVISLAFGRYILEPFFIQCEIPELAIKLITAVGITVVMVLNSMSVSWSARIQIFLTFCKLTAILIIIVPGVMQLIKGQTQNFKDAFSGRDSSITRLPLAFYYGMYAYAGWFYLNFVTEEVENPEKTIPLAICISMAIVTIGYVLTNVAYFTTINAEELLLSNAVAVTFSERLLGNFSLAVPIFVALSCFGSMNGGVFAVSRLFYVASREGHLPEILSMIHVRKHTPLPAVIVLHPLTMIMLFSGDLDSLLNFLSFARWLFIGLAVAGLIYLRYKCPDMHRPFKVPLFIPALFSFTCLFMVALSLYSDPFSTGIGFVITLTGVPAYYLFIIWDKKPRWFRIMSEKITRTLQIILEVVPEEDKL
UniProt Q9UGH3: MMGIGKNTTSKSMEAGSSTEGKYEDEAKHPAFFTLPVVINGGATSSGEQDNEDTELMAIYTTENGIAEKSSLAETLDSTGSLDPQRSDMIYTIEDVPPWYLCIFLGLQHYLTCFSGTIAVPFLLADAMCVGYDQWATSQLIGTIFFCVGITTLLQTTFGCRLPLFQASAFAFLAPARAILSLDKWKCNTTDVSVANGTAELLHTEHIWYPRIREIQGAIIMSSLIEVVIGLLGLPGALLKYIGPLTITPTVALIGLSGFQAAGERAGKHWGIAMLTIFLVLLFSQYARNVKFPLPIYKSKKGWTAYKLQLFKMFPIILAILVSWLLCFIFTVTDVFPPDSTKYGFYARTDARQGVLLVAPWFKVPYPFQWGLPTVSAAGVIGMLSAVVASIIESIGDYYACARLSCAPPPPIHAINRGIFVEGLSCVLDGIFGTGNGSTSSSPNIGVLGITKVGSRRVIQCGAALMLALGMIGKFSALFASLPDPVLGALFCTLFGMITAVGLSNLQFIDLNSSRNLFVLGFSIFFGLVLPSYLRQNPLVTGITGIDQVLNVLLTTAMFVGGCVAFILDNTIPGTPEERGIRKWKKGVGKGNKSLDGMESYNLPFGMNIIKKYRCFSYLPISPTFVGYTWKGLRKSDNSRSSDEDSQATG
UniProt P14672: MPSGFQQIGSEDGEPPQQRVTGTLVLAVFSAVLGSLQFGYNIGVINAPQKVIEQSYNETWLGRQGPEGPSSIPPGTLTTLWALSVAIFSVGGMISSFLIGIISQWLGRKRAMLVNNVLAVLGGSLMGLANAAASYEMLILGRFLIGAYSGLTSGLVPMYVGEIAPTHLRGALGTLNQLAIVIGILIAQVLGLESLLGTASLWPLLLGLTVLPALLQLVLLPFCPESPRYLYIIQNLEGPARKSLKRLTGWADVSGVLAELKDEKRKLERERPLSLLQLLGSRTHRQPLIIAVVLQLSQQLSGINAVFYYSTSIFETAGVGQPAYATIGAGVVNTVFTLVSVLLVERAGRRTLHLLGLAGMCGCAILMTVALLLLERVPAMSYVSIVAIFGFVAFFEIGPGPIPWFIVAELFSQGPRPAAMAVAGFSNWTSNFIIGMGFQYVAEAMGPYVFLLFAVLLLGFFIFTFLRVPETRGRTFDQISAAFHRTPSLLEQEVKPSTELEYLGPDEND

[2] = compound: CN1CCc2c(c3ccccc3n2Cc2ccc(C(=O)NO)cc2)C1 [Tubastatin A]
How it was run: as §1

[3] = compound: CNC(=O)C1=CC=CC=C1NC2=NC(=NC=C2Cl)NC3=C(C=C(C=C3)N4CCOCC4)OC
How it was run: as §1

[4] = compound: CNC(=O)c1ccc(Nc2ncc(C(F)(F)F)c(NCc3nccnc3N(C)S(C)(=O)=O)n2)cc1 [defactinib]
How it was run: as §1

[5] = compound: CNc1nc(-c2ccc3c(N)n[nH]c3c2)cc(N2C[C@@H](C(=O)NC3CCCCC3)CC[C@H]2C)n1
How it was run: as §1

[6] = compound: COC(=O)N[C@@H](C)CNc1nccc(-c2cn(C(C)C)nc2-c2cc(Cl)cc(NS(C)(=O)=O)c2F)n1 [encorafenib]
How it was run: as §1

[7] = compound: COC(=O)[C@H](CCSC)NC(=O)C1=C(C=C(C=C1)NC[C@H](CS)N)C2=CC=CC=C2
How it was run: as §1

[8] = compound: COc1cc(Nc2ncc3c(n2)-c2ccc(Cl)cc2C(c2c(F)cccc2OC)=NC3)ccc1C(=O)O [alisertib]
How it was run: as §1

[9] = compound: COc1cc2nc(-c3cc(F)ccc3O)nc(N[C@@H]3CNC[C@H]3C(C)(C)O)c2cc1OC
How it was run: as §1

[10] = compound: COc1cc2ncnc(Nc3ccc(F)c(Cl)c3)c2cc1OCCCN1CCOCC1 [gefitinib]
How it was run: as §1

[11] = compound: CS(=O)(=O)CCNCc1ccc(-c2ccc3ncnc(Nc4ccc(OCc5cccc(F)c5)c(Cl)c4)c3c2)o1 [lapatinib]
How it was run: as §1

[12] = compound: CS(=O)(=O)N1CCN(Cc2cc3nc(-c4cccc5[nH]ncc45)nc(N4CCOCC4)c3s2)CC1 [pictilisib]
How it was run: as §1

[13] = compound: C[C@H](C1=CC=C(C=C1)C(=O)NC2=C3C=CNC3=NC=C2)N
How it was run: as §1

[14] = compound: C[C@H](Nc1ncnc2nc[nH]c12)c1cc2cccc(Cl)c2c(=O)n1-c1ccccc1 [duvelisib]
How it was run: as §1

[15] = compound: Cc1cc(Nc2cc(CN3CCOCC3)c3nc(C)c(Cc4ccc(Cl)cc4F)n3n2)n[nH]1 [gandotinib]
How it was run: as §1

[16] = compound: Cc1cc(Nc2cc(N3CCN(C)CC3)nc(Sc3ccc(NC(=O)C4CC4)cc3)n2)n[nH]1 [tozasertib]
How it was run: as §1

[17] = compound: Cc1ccc(NC(=O)c2ccc(CN3CC[C@H](N(C)C)C3)c(C(F)(F)F)c2)cc1Nc1nccc(-c2cncnc2)n1 [bafetinib]
How it was run: as §1

[18] = compound: Cc1cccc(CC(=O)N2CCc3c2ccc(-c2cn(C)c4ncnc(N)c24)c3F)n1
How it was run: as §1

[19] = compound: C[C@@H](Oc1cc(-c2cnn(C3CCNCC3)c2)cnc1N)c1c(Cl)ccc(F)c1Cl [crizotinib]
How it was run: as §1

[20] = compound: Cc1ccc(-n2nc(C(C)(C)C)cc2NC(=O)Nc2ccc(OCCN3CCOCC3)c3ccccc23)cc1 [doramapimod]
How it was run: as §1

Measured: log2 fold change

SLC35F2 (UniProt Q8IXU6)
inactive: [1] -0.133 | [2] 0.014 | [3] -0.065 | [4] 0.101 | [5] -0.069 | [6] 0.024 | [7] -0.084 | [8] -0.021 | [9] 0.027 | [10] -0.026 | [11] -0.019 | [12] -0.023 | [13] -0.228 | [14] 0.072 | [15] 0.145 | [16] -0.023 | [17] 0.021 | [18] 0.175

SLC31A1 (UniProt O15431)
inactive: [1] -0.002 | [2] -0.112 | [3] 0.07 | [4] -0.094 | [5] -0.16 | [8] -0.17 | [9] 0.104 | [10] 0.049 | [11] 0.224 | [12] -0.052 | [19] -0.039 | [13] -0.044 | [14] -0.007 | [15] 0.077 | [20] 0 | [17] -0.055 | [18] 0.016

SLC35B3 (UniProt Q9H1N7)
inactive: [1] -0.043 | [2] 0.023 | [3] 0.024 | [4] 0.068 | [5] 0.073 | [8] 0.075 | [9] 0.073 | [10] 0.078 | [11] 0.07 | [12] -0.007 | [19] -0.062 | [13] -0.013 | [14] 0.052 | [15] 0.061 | [20] 0.17 | [17] -0.207 | [18] 0.099

SLC25A25 isoform 3 (UniProt Q6KCM7)
inactive: [1] 0.014 | [2] 0.015 | [3] 0.007 | [4] 0.029 | [5] 0.003 | [6] 0.035 | [7] 0.012 | [8] -0.011 | [9] 0.025 | [10] 0.037 | [11] -0.004 | [12] 0.021 | [19] -0.039 | [13] 0.013 | [14] -0.014 | [15] -0.047 | [16] 0 | [20] 0.015 | [17] 0.013 | [18] 0.043

SLC26A2 (UniProt P50443)
inactive: [1] -0.152 | [2] 0.12 | [3] 0 | [4] 0.009 | [5] -0.059 | [6] -0.013 | [7] -0.055 | [9] 0.056 | [11] -0.081 | [12] -0.119 | [19] -0.089 | [13] -0.022 | [14] -0.052 | [15] 0.098 | [16] 0.005 | [20] 0.04 | [17] 0.233 | [18] 0.113

SLC7A11 (UniProt Q9UPY5)
inactive: [1] -0.041 | [2] 0.028 | [3] -0.059 | [4] -0.042 | [5] 0.101 | [6] 0.003 | [7] -0.043 | [8] -0.069 | [9] 0.014 | [10] 0.039 | [11] 0.003 | [12] -0.042 | [19] -0.012 | [13] -0.082 | [14] -0.031 | [15] 0.06 | [16] 0.024 | [20] -0.01 | [17] -0.035 | [18] 0

SLC23A2 (UniProt Q9UGH3)
inactive: [1] -0.063 | [2] -0.038 | [3] -0.097 | [5] 0.03 | [6] -0.035 | [7] 0.247 | [9] -0.139 | [11] -0.237 | [19] 0.051 | [13] -0.171 | [14] -0.015 | [15] 0.126 | [16] 0.105 | [20] -0.09 | [18] 0.065

SLC2A4 (UniProt P14672)
inactive: [1] -0.035 | [2] 0.043 | [3] 0.014 | [4] -0.134 | [5] 0.096 | [6] 0.034 | [7] -0.028 | [9] -0.017 | [11] 0.041 | [12] -0.044 | [19] 0.082 | [13] -0.007 | [14] -0.034 | [15] 0.031 | [16] -0.106 | [20] -0.02 | [17] 0.079 | [18] 0.064
